According to patent US11028136B2, “Tumor antigen peptide” (Sapporo Medical University, priority 2014, dated 2021):
Part of at least one peptide drawing is inferred or uncertain, most often the ends. Some entries repeat one wording, which the source may state once for all of them. No end group written: not given here.

What was measured:
[1] = tested on: KLA or VLT peptide-specific CTLs; experiment: Functional analysis of peptide-specific CTLs, CD107a degranulation marker flow cytometry; assay type: cell-based, human; details: restimulation with peptide 100 ng/mL versus untreated well, sample A2-29; FIG. 44, 45
[2] = tested on: PBMCs of healthy adults possessing HLA-A*02:01; experiment: Induction of BORIS-specific CTLs by polypeptide stimulation, HLA-tetramer reagent/CD8 flow cytometry; assay type: cell-based, human; details: for CD8-positive HLA-tetramer-positive cell population, first stage analysis: peptide 10 μg/mL, 13 days, donor sample as named in the sentence; for Frequency of peptide-specific CTLs in peripheral blood PBMCs: positive wells/(3×10^7 PBMCs × CD8-positive rate); for Number of HLA-tetramer reagent positive wells among 96 wells: second stage analysis
Protocol: PBMCs were separated from portions other than the plasma portion by density gradient centrifugation. 10 mL of a medium containing 2-mercaptoethanol (final concentration 55 μM), L-glutamine (final concentration 2 mM), as antibiotics streptomycin (final concentration 100 μg/mL) and penicillin G (final concentration 100 U/mL), and 5% plasma component in a Hepes modified RPMI1640 medium (Sigma) and about 3×10^7 cells/plate of the PBMCs separated above were placed in each well of a 96 well round-bottom cell culture micro test plate (BECTON DIKINSON), suspended, and cultured. The BORIS sf6-specific CTL epitope candidate peptide SEQ ID No: 4 or SEQ ID No: 5 was added thereto at a concentration of 10 μg/mL. After culturing for 2 days, IL-2 was added at a final concentration of 50 U/mL, and culturing was carried out for a further 2 weeks.
10 μL of PE-labeled HLA-tetramer reagent and 20 μL of CD8-FITC antibody were added to an appropriate amount of the cultured cells, gently mixed, and allowed to stand at 4° C. for 30 minutes. 1.5 mL of PBS was added thereto and mixed, the mixture was then centrifuged at 3,000 rpm for 5 minutes, the supernatant was aspirated and discarded, and the cells were suspended in 400 μL of PBS and analyzed using a flow cytometer within 24 hours.
Analysis was carried out in two stages. In the first stage, cells in 8 wells in one column of the 96 well round-bottom cell culture micro test plate were collected as one sample, and the presence or absence of induction of BORIS-specific CTLs in the sample was ascertained. A sample for which CTL induction was confirmed in this stage was subjected to second stage analysis. In the second stage, cells were collected individually from the 8 wells as single samples, and the presence or absence of induction of BORIS-specific CTLs in the sample was ascertained.
Diagrams of the results of analysis by flow cytometer are expressed as dot plot development diagrams in which the X axis is CD8 and the Y axis is fluorescence intensity with the HLA-tetramer reagent shown on a log scale. Numerals in the dot plot development diagram show the percentage of UR in (UR+LR) where divisions into four regions are expressed as UL (upper left), UR (upper right), LL (lower left), and LR (lower right), that is, the proportion of HLA-tetramer reagent-positive cells among CD8-positive cells.
The presence or absence of CTL induction was ascertained by the same method as in Example 3 (5) for a cell population for which CTLs had been induced. Staining of CTLs was carried out using an HLA-tetramer reagent that corresponded to the BORIS-specific CTL epitope candidate peptide used for induction.

[3] = tested on: HLA-A2 antigen and/or HLA-A24 antigen; experiment: Examination of BORIS partial peptides for HLA-binding capacity (summary statement); set-up: species or system human; details: summary in description
[4] = tested on: peptide-specific CTLs; experiment: Functional analysis of peptide-specific CTLs, IFNγ ELISPOT; assay type: cell-based, human
[5] = tested on: CD8-positive cells of healthy adults possessing HLA-A*02:01; experiment: Induction of CTLs by PHA-blast stimulation, HLA-tetramer reagent/CD8 flow cytometry; assay type: cell-based, human; details: 28 days; sample A2-S1 (LLF) or A2-S5 (RMM)
[6] = tested on: RMM peptide-specific CTLs; experiment: Functional analysis of RMM peptide-specific CTLs, intracellular IFNγ and RMM-Tet flow cytometry; assay type: cell-based, human; details: restimulation with peptide 100 ng/mL versus no peptide; FIG. 13
[7] = tested on: PBMCs of healthy adults possessing HLA-A*24:02; experiment: Induction of BORIS-specific CTLs by polypeptide stimulation, HLA-tetramer reagent/CD8 flow cytometry; assay type: cell-based, human; details: sample A24-38
[8] = tested on: CD8-positive cells of a healthy adult possessing HLA-A*24:02; experiment: Induction of CTLs by PHA-blast stimulation, HLA-tetramer reagent/CD8 flow cytometry; assay type: cell-based, human; details: 28 days; sample A24-S4

KLAVSLAET [KLA peptide, KLAVSLAET]
CD107a positive HLA-tetramer reagent-positive cells [1]: appeared in the UR only when stimulated with KLA peptide

VLTVSNSNV [VLT peptide, VLTVSNSNV]
CD107a positive HLA-tetramer reagent-positive cells [1]: appeared in the UR only when stimulated with the VLT peptide

LLFIGTIKV [LLF peptide, LLFIGTIKV]
CD8-positive HLA-tetramer-positive cell population, first stage analysis [2]: clearly detected | Frequency of peptide-specific CTLs in peripheral blood PBMCs ([2]; sample A2-29): 3.73×10^−6 | Number of HLA-tetramer reagent positive wells among 96 wells ([2]; sample A2-29): 19 wells | HLA-binding capacity [3]: a desirable HLA-binding capacity is shown | IFNγ spots (ELISPOT), monocloned and amplified CTLs ([4]; CTL clone from sample A2-S1, versus no peptide, FIG. 27): many IFNγ spots were detected | IFNγ spots (ELISPOT) ([4]; induced CTLs of samples A2-S1, A2-S2, A2-S3, versus SLY peptide or PBS, FIG. 25): many IFNγ spots were clearly detected | CD8-positive HLA-tetramer-positive cell population after PHA-blast stimulation [5]: clearly detected

RMMLVSAWL [RMM peptide, RMMLVSAWL]
HLA-binding capacity [3]: a desirable HLA-binding capacity is shown | Number of IFNγ spots (ELISPOT) ([4]; samples A24-S4 and A2-S5, versus HIV-derived peptide or PBS, FIG. 30): the number of spots detected was clearly large | IFNγ-positive HLA-tetramer reagent-positive cells [6]: appeared in the UR only when stimulated with the RMM peptide | CD8-positive RMM-Tet-positive cell population, first stage analysis ([7]; peptide 10 μg/mL, 13 days): clearly detected | Frequency of peptide-specific CTLs in peripheral blood PBMCs ([7]; 5/(3×10^7×0.18)): 9.26×10^−7 | Number of HLA-tetramer reagent positive wells among 96 wells ([7]; second stage analysis): 5 wells | CD8-positive HLA-tetramer-positive cell population after PHA-blast stimulation [5]: clearly detected | CD8-positive RMM-Tet-positive cell population after PHA-blast stimulation [8]: clearly detected

KLLFIGTIKV [KLL peptide, KLLFIGTIKV]
CD8-positive HLA-tetramer-positive cell population, first stage analysis [2]: clearly detected | Frequency of peptide-specific CTLs in peripheral blood PBMCs ([2]; sample A2-34): 4.17×10^−7 | Number of HLA-tetramer reagent positive wells among 96 wells ([2]; sample A2-34): two | HLA-binding capacity [3]: a desirable HLA-binding capacity is shown
